Numbering of substitutions follows the chain as printed. In names and notes the source's numbering stands. Results are given in words; binding and its absence hold for the method and conditions named. Some results given as binding are weak or reduced against the parent protein; the word gives no strength. Tags and fused reporters may be left off the sequences shown.
T1: FtsE, bacterial two-hybrid fusion (B. subtilis) (UniProt O34814)
T1 sequence: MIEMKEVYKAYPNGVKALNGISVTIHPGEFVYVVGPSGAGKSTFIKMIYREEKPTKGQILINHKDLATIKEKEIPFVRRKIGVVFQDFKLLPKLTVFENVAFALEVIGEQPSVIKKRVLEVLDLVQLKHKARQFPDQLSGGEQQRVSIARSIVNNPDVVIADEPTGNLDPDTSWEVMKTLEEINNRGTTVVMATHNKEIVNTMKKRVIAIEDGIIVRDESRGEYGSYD

T2: Mbl, bacterial two-hybrid fusion (B. subtilis) (UniProt P39751)
T2 sequence: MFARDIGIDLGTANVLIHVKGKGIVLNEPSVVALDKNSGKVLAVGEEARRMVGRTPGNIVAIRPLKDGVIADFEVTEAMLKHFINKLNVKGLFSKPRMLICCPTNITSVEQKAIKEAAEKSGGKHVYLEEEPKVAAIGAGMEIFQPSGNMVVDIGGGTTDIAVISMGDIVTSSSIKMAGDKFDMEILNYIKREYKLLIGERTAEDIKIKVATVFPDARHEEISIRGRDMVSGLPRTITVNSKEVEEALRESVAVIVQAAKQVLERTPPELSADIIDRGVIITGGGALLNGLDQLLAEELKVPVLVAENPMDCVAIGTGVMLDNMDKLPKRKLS

B1: YisK (BSU10750), bacterial two-hybrid fusion (enzyme, UniProt O06724 1-301)
chain: MKFATGELYNRMFVGLIIDDEKIMDLQKAEKKLFELETIPGSLIECIAEGDKFVAHARQLAEWAKKPNDELGSFMYSLSEVKLHAPIPKPSKNIICIGKNYRDHAIEMGSEADIPEHPMVFTKSPVTVTGHGDIVKSHEEVTSQLDYEGELAVVIGKSGTRISKEDAYDHVFGYTIVNDITARDLQKRHKQFFIGKSLDTTCPMGPVLVHKSSIQEPERLKVETRVNGELRQSGSASDMIFSIPELIETLSKGMTLEAGDIIATGTPSGVGKGFTPPKFLRSGDKIDITIDPIGTLSNQIG
B2: YisK E30A, bacterial two-hybrid fusion (enzyme, UniProt O06724 1-301)
chain: B1 chain with E30A

Key:
Assay in all cases: two-hybrid
[1] = target: T1, FtsE, bacterial two-hybrid fusion (B. subtilis)
[2] = target: T2, Mbl, bacterial two-hybrid fusion (B. subtilis)
[3] = target: YisK (BSU10750), bacterial two-hybrid fusion (B. subtilis 168) (UniProt O06724)
[4] = target: YisK E30A, bacterial two-hybrid fusion (B. subtilis 168) (UniProt O06724)

Binder | binding [1] | binding [2] | binding [3] | binding [4]
B1 | binds | no binding | binds | –
B2 | – | – | – | binds

From paper doi:10.1101/2023.06.26.546597 (bioRxiv, 2023)
